Results reported in the supplement of paper PMC4604168 (melanoma cell lines).
The other results are listed elsewhere or left out. Single values are uncertain, as repeats are few or missing.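 Cells were imaged in 1,536-well plates, and nuclei stained with an antibody against cleaved PARP were counted against all DNA-stained nuclei to give the apoptosis fraction. Screening doses were chosen to leave most cells alive, and resting and induced cleaved-PARP levels differ strongly between cell lines.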

Test system: WM1745
Test: cleaved PARP positive nuclei fraction relative to DMSO control; melanoma cells; higher = more apoptosis
Settings: library dose: low library concentration; 72 h

SMILES	cleaved PARP positive nuclei fraction [%]
C[C@]12O[C@H](C[C@]1(O)CO)n1c3ccccc3c3c4c(c5c6ccccc6n2c5c31)CNC4=O [Lestaurtinib] + O=C(CCCCCCC(=O)Nc1ccccc1)NO [vorinostat] (first compound 0.004 µM, partner dose 0.08 µM)	80.2
CCCCCCCCc1ccc(CCC(N)(CO)CO)cc1 [fingolimod] + N.N.[Cl][Pt][Cl] [cisplatin] (first compound 2 µM, partner dose 1.6 µM)	123
Cc1ccc(Nc2nccc(N(C)c3ccc4c(C)n(C)nc4c3)n2)cc1S(N)(=O)=O [Pazopanib] + C/C(O)=C(\C#N)C(=O)Nc1cc(Br)ccc1Br [LFM-A13] (first compound 0.4 µM, partner dose 2 µM)	86.2
C[C@]12O[C@H](C[C@]1(O)CO)n1c3ccccc3c3c4c(c5c6ccccc6n2c5c31)CNC4=O [Lestaurtinib] + O=C(Nc1cccc(Cl)c1)Nc1ncc(CCNc2ncnc3ccsc23)s1 [SNS314] (first compound 0.004 µM, partner dose 0.0008 µM)	81.6
C[C@]12O[C@H](C[C@]1(O)CO)n1c3ccccc3c3c4c(c5c6ccccc6n2c5c31)CNC4=O [Lestaurtinib] + O=C(Oc1ccc([N+](=O)[O-])cc1)N1CCC(C(O)(c2ccc3c(c2)OCO3)c2ccc3c(c2)OCO3)CC1 [JZL184] (first compound 0.004 µM, partner dose 1 µM)	186
Cn1cc(C2=C(c3cn(C4CCN(Cc5ccccn5)CC4)c4ccccc34)C(=O)NC2=O)c2ccccc21 [Enzastaurin] + CC(=O)c1c(C)c2cnc(Nc3ccc(N4CCNCC4)cn3)nc2n(C2CCCC2)c1=O [palbociclib] (first compound 0.8 µM, partner dose 0.04 µM)	129
C[As](C)SC[C@H](NC(=O)CC[C@H](N)C(=O)O)C(=O)NCC(=O)O [Darinaparsin] + Cn1nnc2c(C(N)=O)ncn2c1=O [temozolomide] (first compound 0.4 µM, partner dose 2 µM)	76.4
Cn1c(=O)n(-c2ccc(C(C)(C)C#N)cc2)c2c3cc(-c4cnc5ccccc5c4)ccc3ncc21 + C/C(O)=C(\C#N)C(=O)Nc1cc(Br)ccc1Br [LFM-A13] (first compound 0.004 µM, partner dose 2 µM)	193
CC(C)(C)c1cnc(CSc2cnc(NC(=O)C3CCNCC3)s2)o1 + O=C(Oc1ccc([N+](=O)[O-])cc1)N1CCC(C(O)(c2ccc3c(c2)OCO3)c2ccc3c(c2)OCO3)CC1 [JZL184] (first compound 0.01 µM, partner dose 1 µM)	116
N.N.[Cl][Pt][Cl] [cisplatin] + COc1ccc2c(c1)CCC1C2CCC2(C)C(NCCCCCCN3C(=O)C=CC3=O)CCC12 [U73122] (first compound 1.6 µM, partner dose 0.4 µM)	89
Cc1cc(SCc2sc(-c3ccc(C(F)(F)F)c(F)c3)nc2C)ccc1OCC(=O)O + Oc1cc(-c2nc(-c3ccccc3)[nH]c2-c2ccncc2)ccc1Cl [L779450] (first compound 2 µM, partner dose 0.2 µM)	114
CC1(C)CCC(c2ccc(Cl)cc2)=C(CN2CCN(c3ccc(C(=O)NS(=O)(=O)c4ccc(N[C@H](CCN5CCOCC5)CSc5ccccc5)c(S(=O)(=O)C(F)(F)F)c4)cc3)CC2)C1 + O=C(Oc1ccc([N+](=O)[O-])cc1)N1CCC(C(O)(c2ccc3c(c2)OCO3)c2ccc3c(c2)OCO3)CC1 [JZL184] (first compound 0.4 µM, partner dose 1 µM)	809
CS(=O)(=O)c1ccc(C(=O)Nc2ccc(Cl)c(-c3ccccn3)c2)c(Cl)c1 [vismodegib] + N.N.[Cl][Pt][Cl] [cisplatin] (first compound 1 µM, partner dose 1.6 µM)	95.2
O=C(/C=C/c1cccnc1)NCCCCC1CCN(C(=O)c2ccccc2)CC1 + C/C(O)=C(\C#N)C(=O)Nc1cc(Br)ccc1Br [LFM-A13] (first compound 0.01 µM, partner dose 2 µM)	79.1
C[As](C)SC[C@H](NC(=O)CC[C@H](N)C(=O)O)C(=O)NCC(=O)O [Darinaparsin] + Cn1cc(/C=C2\C(=O)Nc3cccnc32)c2ccccc21 [GW441756] (first compound 0.4 µM, partner dose 0.4 µM)	103

A second format for some results above:

| SMILES | cleaved PARP positive nuclei fraction [%] |
| --- | --- |
| CC1(C)CCC(c2ccc(Cl)cc2)=C(CN2CCN(c3ccc(C(=O)NS(=O)(=O)c4ccc(N[C@H](CCN5CCOCC5)CSc5ccccc5)c(S(=O)(=O)C(F)(F)F)c4)cc3)CC2)C1 + O=C(Oc1ccc([N+](=O)[O-])cc1)N1CCC(C(O)(c2ccc3c(c2)OCO3)c2ccc3c(c2)OCO3)CC1 [JZL184] (first compound 0.4 µM, partner dose 1 µM) | 809 |
| CS(=O)(=O)c1ccc(C(=O)Nc2ccc(Cl)c(-c3ccccn3)c2)c(Cl)c1 [vismodegib] + N.N.[Cl][Pt][Cl] [cisplatin] (first compound 1 µM, partner dose 1.6 µM) | 95.2 |
